Source: paper PMC8544881 (mSphere, 2021)
Results are given in words; binding and its absence hold for the method and conditions named. In cells and extracts the contact can be indirect. Some entries that bind do so weakly or less than the wild type.

Sequences of proteins named here, by UniProt entry; tags and fusion partners are left off.
UniProt Q13547: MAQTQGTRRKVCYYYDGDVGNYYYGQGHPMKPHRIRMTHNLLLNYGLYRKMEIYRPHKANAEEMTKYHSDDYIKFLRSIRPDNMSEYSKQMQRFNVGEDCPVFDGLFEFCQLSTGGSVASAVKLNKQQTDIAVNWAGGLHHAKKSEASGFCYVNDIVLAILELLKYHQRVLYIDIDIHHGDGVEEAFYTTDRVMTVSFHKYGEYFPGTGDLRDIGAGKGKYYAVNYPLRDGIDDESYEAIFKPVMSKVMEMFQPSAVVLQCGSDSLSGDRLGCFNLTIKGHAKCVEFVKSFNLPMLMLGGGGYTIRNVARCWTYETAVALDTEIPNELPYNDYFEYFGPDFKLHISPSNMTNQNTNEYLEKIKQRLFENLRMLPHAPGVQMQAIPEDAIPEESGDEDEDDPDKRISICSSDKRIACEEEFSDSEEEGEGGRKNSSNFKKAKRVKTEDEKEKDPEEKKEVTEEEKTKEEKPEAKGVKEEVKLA

T1: zinc finger and BTB domain 25 (ZBTB25) (human (endogenous in THP-1)) (UniProt P24278)
T1 sequence: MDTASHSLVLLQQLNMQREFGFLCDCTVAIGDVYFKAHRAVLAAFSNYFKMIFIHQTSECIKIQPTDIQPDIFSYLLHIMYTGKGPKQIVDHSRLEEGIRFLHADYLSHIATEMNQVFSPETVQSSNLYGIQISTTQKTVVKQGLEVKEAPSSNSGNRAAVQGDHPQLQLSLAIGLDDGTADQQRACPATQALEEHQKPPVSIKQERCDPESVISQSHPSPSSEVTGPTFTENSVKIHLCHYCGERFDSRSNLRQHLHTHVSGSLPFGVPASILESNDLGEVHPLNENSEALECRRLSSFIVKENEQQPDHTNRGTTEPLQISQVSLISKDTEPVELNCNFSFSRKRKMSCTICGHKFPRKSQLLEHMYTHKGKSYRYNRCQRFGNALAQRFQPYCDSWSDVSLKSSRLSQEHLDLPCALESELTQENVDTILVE

T2: transcriptional corepressor Sin3a (human (endogenous in THP-1)) (UniProt Q96ST3)
T2 sequence: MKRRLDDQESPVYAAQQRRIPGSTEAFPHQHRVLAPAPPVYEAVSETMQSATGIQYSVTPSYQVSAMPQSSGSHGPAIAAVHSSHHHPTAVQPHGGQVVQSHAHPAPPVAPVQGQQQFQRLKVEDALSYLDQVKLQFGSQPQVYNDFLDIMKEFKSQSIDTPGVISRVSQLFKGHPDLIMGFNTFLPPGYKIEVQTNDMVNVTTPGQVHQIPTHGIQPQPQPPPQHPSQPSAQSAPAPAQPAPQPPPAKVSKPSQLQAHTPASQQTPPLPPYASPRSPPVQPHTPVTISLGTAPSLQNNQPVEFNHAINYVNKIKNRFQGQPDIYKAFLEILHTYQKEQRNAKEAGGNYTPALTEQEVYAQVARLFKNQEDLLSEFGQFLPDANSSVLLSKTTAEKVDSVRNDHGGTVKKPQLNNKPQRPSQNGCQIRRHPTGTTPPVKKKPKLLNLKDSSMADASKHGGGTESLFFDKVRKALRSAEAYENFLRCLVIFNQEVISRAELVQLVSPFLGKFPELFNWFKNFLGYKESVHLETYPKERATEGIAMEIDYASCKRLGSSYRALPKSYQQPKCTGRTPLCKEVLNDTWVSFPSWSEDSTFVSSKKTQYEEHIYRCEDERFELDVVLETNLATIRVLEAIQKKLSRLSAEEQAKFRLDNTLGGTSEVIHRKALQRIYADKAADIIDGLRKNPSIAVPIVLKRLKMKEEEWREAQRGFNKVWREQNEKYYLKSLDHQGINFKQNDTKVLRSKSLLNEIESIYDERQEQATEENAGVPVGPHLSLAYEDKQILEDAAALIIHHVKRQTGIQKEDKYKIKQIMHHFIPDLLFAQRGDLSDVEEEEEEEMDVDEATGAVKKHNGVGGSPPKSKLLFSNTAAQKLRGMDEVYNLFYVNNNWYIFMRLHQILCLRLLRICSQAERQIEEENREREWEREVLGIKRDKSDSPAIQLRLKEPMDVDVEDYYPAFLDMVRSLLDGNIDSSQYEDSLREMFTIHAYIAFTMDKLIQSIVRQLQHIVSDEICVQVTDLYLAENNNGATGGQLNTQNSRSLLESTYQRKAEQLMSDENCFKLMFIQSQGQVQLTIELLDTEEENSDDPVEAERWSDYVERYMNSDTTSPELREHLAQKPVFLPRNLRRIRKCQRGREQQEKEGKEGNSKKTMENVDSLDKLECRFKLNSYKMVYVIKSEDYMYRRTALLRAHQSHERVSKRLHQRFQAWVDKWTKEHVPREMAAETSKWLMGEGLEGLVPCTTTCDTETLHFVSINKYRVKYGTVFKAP


Tests used:
Assay in all cases: co-IP; whole-cell lysates of THP-1-derived macrophages; immunoprecipitated with antibodies against ZBTB25, Sin3a or HDAC1, IgG as negative control; protein A/G Sepharose beads, 4°C; Western blot
[1] = target: T1, zinc finger and BTB domain 25 (ZBTB25) (human (endogenous in THP-1))
[2] = target: T2, transcriptional corepressor Sin3a (human (endogenous in THP-1))
[3] = target: histone deacetylase 1 (HDAC1) (human (endogenous in THP-1)) (UniProt Q13547)

Row | binding [1] | binding [2] | binding [3] | Molecule
1 | binds | – | – | histone deacetylase 1 (HDAC1) (from UniProt Q13547 1-482) (enzyme)
2 | – | binds | binds | zinc finger and BTB domain 25 (ZBTB25) (protein, UniProt P24278 1-435) MDTASHSLVLLQQLNMQREFGFLCDCTVAIGDVYFKAHRAVLAAFSNYFKMIFIHQTSECIKIQPTDIQPDIFSYLLHIMYTGKGPKQIVDHSRLEEGIRFLHADYLSHIATEMNQVFSPETVQSSNLYGIQISTTQKTVVKQGLEVKEAPSSNSGNRAAVQGDHPQLQLSLAIGLDDGTADQQRACPATQALEEHQKPPVSIKQERCDPESVISQSHPSPSSEVTGPTFTENSVKIHLCHYCGERFDSRSNLRQHLHTHVSGSLPFGVPASILESNDLGEVHPLNENSEALECRRLSSFIVKENEQQPDHTNRGTTEPLQISQVSLISKDTEPVELNCNFSFSRKRKMSCTICGHKFPRKSQLLEHMYTHKGKSYRYNRCQRFGNALAQRFQPYCDSWSDVSLKSSRLSQEHLDLPCALESELTQENVDTILVE
